Assay results reported in US9175077B2, “Nucleic acids encoding biologically active polypeptides derived from a novel early stage pregnancy factor designated maternin (MA)” (NOBEL BIOSCIENCES LLC, priority 1999, dated 2015).
Some results were stated once for a whole list of compounds, not compound by compound. Some compounds share one range, which may span the group rather than tell each member.

Tested on: hematopoietic progenitors (CFU-GEMM, BFU-e, CFU-GM, T-CFC)
Experiment: Hematopoietic colony formation assays
Assay type: cell-based
Conditions: at 30-150 nM; all hematopoietic progenitors; human bone marrow
Source text: Hematopoietic colony formation assays with bone marrow or cord blood of normal human volunteers and bone marrow of monkeys, rats, and mice were utilized. The assays are conventional measurements of the number of progenitors for erythrocytes, granulocytes, macrophages, platelets, and T-cells. The culture conditions included growth factors that would give near optimum growth for the particular lineage. These factors included II-3, PHA-lymphocyte conditioned medium, erythropoietin (EPO), II-6, and GM-CSF. The number of colonies developing in methylcellulose reflects the number of progenitor cells, and the percent increase is a measure of the effect of different polypeptides to increase colony number above the maximum obtained with the indicated known growth factors.
The latter is a less conventional assay, and details on the methods involved are described elsewhere.^178

Substance	maximum increase in colony number
VVCNYRDVRFESIRLPGCPRGVNPVVSYAVALSCQ [MA]	60-80%
VRFESIRLPGCPRGV (listed as Homo sapiens) [MAS1]	60-80%
NYRDVRFESIRLPGCPRGVNPVVSYAVALS (listed as Homo sapiens) [MAS2]	60-80%
RLPGCPR (listed as Homo sapiens) [MAS5]	60-80%

Tested on: human carcinoma and sarcoma cells (PC3, KS Y-1)
Experiment: Xenotransplanted human tumors in immunodeficient mice
Assay type: in vivo
Conditions: 60-100 pmoles (200 ng/day I.P. for seven days)
Method: In the first set of experiments, MA was tested against tumors formed by xenotransplantation of various human carcinoma and sarcoma cells in immunodeficient mice. […] […] Three different synthetic forms of MA were used: full length (MAS3) and the previously described MAS1 and MAS2 (Panel C).

Substance	inhibition of tumor size
VVCNYRDVRFESIRLPGCPRGVNPVVSYAVALSCQ [MA]	over 70%
pMA: natural peptide 38 amino acids in length, β-hCG 55-92 (SEQ ID NO: 3) (VVCNYRDVRFESIRLPGCPRGVNPVVSYAVALSCQCAL; listed as Homo sapiens)	over 70%
